These are yes or no findings as the source states them, for the method shown. Some binding calls cover weakened binding; strength is not graded here.
Assays:
[1] = target: human thyroid-stimulating hormone receptor (human TSHR), on cells (human) (UniProt P16473); assay: flow cytometry, CGH-biotin 10 ug/ml + streptavidin-PE on human PBMC subsets; receptor taken as TSH-R by the example's heading
[2] = target: thyroid-stimulating hormone receptor (TSHR) expressed on BHK cells (BHK-TSHR cells) (UniProt P16473); assay: summary of the radioligand binding and competition on BHK-TSHR cells
[3] = target: thyroid-stimulating hormone receptor (TSHR) expressed on BHK cells (BHK-TSHR cells) (UniProt P16473); assay: radioligand binding to BHK-TSHR cell monolayers, 4 C

By UniProt entry, the sequences of proteins in these tests, tags left out. Where a name states a change or a piece, a line headed by the entry shows the natural chain unless it says otherwise. Residues count along the entry.
UniProt P16473, residues 21-764: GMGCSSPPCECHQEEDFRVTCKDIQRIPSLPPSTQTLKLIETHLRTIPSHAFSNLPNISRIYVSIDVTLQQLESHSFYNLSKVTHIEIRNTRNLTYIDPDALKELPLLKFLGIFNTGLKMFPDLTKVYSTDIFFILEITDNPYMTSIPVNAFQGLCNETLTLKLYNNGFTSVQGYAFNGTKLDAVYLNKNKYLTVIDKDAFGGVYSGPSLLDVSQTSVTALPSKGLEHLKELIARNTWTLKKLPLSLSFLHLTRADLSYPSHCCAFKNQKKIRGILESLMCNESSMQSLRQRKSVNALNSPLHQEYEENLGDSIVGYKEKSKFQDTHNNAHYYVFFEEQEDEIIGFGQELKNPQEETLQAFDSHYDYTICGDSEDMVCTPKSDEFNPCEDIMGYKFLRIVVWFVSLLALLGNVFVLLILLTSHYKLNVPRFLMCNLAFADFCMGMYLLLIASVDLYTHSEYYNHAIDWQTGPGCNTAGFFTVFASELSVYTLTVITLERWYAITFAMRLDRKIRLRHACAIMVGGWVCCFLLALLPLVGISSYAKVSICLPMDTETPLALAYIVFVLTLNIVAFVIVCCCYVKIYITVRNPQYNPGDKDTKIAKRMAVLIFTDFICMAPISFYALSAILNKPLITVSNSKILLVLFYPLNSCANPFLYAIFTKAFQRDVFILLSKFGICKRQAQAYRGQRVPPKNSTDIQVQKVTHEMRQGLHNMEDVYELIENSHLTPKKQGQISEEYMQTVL
UniProt Q96T91: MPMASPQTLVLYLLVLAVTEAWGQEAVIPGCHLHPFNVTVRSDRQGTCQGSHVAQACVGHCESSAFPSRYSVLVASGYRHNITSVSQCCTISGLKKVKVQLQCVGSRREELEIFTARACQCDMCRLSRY

Measured: binding

recombinant human Corticotroph-derived Glycoprotein Hormone (rhCGH), heterodimer of GPHA2 and GPHB5 (from UniProt Q96T91 24-129; Q86YW7 25-130) (ligand)
binds: all assays above

— US20070014736A1, “Methods of delivering corticotroph-derived glycoprotein hormone” (priority 2005, published 2007)
